Screening data, single-dose tests

By UniProt entry, the sequences of proteins in these tests, tags left out. Residues count along the entry.
UniProt P9WFT3, whole entry: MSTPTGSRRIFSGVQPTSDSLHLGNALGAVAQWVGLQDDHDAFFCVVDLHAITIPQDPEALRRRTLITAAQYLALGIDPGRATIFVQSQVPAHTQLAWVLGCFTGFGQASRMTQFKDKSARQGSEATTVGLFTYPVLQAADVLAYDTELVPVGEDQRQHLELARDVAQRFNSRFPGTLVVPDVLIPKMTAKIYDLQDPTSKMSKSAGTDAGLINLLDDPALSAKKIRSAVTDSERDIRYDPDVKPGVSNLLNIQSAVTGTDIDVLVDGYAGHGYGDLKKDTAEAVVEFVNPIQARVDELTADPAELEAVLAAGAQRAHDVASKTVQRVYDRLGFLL
UniProt P9WPC5, whole entry: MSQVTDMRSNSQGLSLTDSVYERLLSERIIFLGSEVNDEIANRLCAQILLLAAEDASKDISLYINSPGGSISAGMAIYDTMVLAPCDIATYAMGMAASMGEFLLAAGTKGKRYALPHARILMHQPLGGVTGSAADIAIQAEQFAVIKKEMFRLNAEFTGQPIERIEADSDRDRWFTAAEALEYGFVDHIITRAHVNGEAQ
UniProt P9WPC3, whole entry partner: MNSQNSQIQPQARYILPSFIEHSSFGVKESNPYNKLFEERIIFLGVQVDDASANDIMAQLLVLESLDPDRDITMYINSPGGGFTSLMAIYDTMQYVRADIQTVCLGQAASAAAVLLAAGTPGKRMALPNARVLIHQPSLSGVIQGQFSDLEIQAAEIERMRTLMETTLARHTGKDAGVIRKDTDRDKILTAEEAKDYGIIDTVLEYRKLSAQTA
UniProt Q8IDJ8, 1-583: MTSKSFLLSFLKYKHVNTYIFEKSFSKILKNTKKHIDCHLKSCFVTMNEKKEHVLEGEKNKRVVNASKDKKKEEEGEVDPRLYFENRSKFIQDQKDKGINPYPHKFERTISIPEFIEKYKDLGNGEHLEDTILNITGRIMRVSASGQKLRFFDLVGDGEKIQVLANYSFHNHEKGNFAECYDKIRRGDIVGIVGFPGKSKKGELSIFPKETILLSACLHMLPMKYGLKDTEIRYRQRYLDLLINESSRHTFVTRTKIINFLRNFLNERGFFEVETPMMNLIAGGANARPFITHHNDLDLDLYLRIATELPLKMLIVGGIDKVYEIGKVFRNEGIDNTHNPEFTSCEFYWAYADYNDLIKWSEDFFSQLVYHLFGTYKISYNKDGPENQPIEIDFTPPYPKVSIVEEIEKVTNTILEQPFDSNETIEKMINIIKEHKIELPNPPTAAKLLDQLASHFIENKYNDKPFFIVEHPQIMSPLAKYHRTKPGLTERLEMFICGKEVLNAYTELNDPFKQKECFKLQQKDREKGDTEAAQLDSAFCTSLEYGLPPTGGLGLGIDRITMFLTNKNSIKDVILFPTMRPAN
UniProt P9WNZ1, whole entry: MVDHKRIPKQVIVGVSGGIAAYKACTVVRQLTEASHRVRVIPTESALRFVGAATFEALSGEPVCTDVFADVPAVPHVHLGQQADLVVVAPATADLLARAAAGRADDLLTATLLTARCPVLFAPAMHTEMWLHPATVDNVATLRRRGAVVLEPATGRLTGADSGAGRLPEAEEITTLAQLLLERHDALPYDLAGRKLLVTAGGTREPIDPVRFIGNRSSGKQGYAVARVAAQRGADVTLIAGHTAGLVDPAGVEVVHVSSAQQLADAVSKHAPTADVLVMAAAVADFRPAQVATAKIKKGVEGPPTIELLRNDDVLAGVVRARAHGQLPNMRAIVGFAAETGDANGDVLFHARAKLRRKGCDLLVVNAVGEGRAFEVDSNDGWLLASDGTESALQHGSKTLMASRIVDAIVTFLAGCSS

Measurements from “University of Dundee, Small-Polar-MMV Screening Library” (2021), ChEMBL document CHEMBL3988442.

A: 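Tryptophan-tRNA ligase, Mycobacterium tuberculosis (UniProt P9WFT3). Enzyme assay of tryptophanyl-tRNA synthetase; the read-out is not stated. Concentration: 10 µM. Direction is not recorded; retested compounds ran higher, which suggests that high means inhibition. Size under these conditions: about 65,000 compounds, about 64 of them at 50% or above in at least one test.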
B: 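ClpP1P2, Mycobacterium tuberculosis (UniProt P9WPC5 and UniProt P9WPC3). Protease assay of ClpP1P2, read by the AMC dye that it sets free. Tested at 50 µM. Direction is inferred from only a few compounds that gave an IC50; most scored high, so higher reads as stronger inhibition. Most other retested compounds had strongly negative values. About 69,000 compounds were tested under these conditions; 0.015% (about 10) showed 50% or more at least once.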
C: 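Cell assay of Leishmania donovani living inside macrophages; the read-out is not stated. Concentration: 30 µM. Higher reads as stronger inhibition (inferred: compounds with an IC50 in retests scored well above the rest). Size under these conditions: about 69,000 compounds, about 1,000 of them at 50% or above in at least one test.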
D: 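Enzyme assay of the cytosolic lysyl-tRNA synthetase in 384-well plates, read by luminescence. Target: Lysine-tRNA ligase, Plasmodium falciparum 3D7 (UniProt Q8IDJ8). Compounds at 30 µM. Higher reads as stronger inhibition, judged from the few compounds that gave an IC50. Of about 69,000 compounds tested this way, about 49 (0.071%) reached 50% or more in at least one test.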
E: 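Coenzyme A biosynthesis protein CoaBC, Mycobacterium tuberculosis (UniProt P9WNZ1). Enzyme assay of CoaBC with a phosphate dye (Biomol Green) read at 650 nm. Compounds at 30 µM. Direction is inferred from only a few compounds that gave an IC50; most scored high, so higher reads as stronger inhibition. Most strong results did not repeat in a second test. Of about 67,000 compounds tested this way, about 40 (0.06%) reached 50% or more in at least one test.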

Each number is a percent effect as filed.
The controls that fix the scale are not given in the record; negative values are as filed.
The compounds are a random part of those screened.
Two or more numbers in one place are separate tests of the same structure; such repeats can differ widely.
A dash means the value is not listed here; it may have been measured.

| compound | A | B | C | D | E |
|---|---|---|---|---|---|
| `O=C(NCCC(=O)N1CCCC1)C(OC1CCCC1)c1ccccc1` (stereo not shown) | -7.597 | 11.45 | -11.04 | -3.191 | -1.491 |
| `Cc1ccc2[nH]c3c(c2c1)CN(C(=O)CN(C)CC1OCCO1)CC3` | -2.733 | 6.389 | 6.308 | 1.336 | -2.552 |
| `Cc1ccc(CNC(=O)Cc2c(C)nc3c(c2C)c(=O)[nH]n3C)cc1` | 2.257 | -41.36 | -17.79 | 0.6502 | -0.2611 |
| `CCn1c(C)nc2cc(NC(=O)CC3CCN(S(C)(=O)=O)CC3)ccc21` | -5.114 | 26.52 | 32.47 | 2.348 | 1.051 |
| `CSCC(CCO)NC(=O)Nc1cc(F)ccc1C` (stereo not shown) | -1.632 | -6.977 | 41.76 | 8.437 | 0.1266 |
| `CCc1cc(N(C)Cc2noc(C(C)C)n2)nc(N2CCOCC2)n1` | 5.263 | -11.14 | 20.51 | -0.2568 | 1.463 |
| `CC(C)N1CCC2(CC1)CC(NS(C)(=O)=O)c1ccccc1O2.O=C(O)C(F)(F)F` (stereo not shown) | - | - | -16.82 | - | - |
| `Cc1cc(CNc2cncc(C(=O)N(C)C)n2)c2[nH]c(C)c(C)c2c1` | 1.025 | -26.66 | -14.42 | 3.22 | 7.905 |
| `COCC(=O)N1CCOC2(CCCN(c3cnccn3)C2)C1` (stereo not shown) | -5.23 | 1.505 | - | 0.4107 | 9.98 |
| `CC(NC(=O)CCCOc1ccccc1)c1nnc2n1CCCCC2` (stereo not shown) | 2.113 | 19.29 | 0.03378 | -0.7225 | 1.305 |
| `CCC(CO)N(Cc1ccccc1C)Cc1ccccc1C(=O)O` (stereo not shown) | -1.338 | -10.11 | 0.6687 | 0.2074 | 13.64 |
| `Cc1ncc(CNC(=O)NC2CCN(C3CCCC3)CC2)s1` | -2.353 | -4.795 | -1.261 | 2.642 | 4.369 |
| `COc1cccc2c1OCCCN(c1nc(N)nc3c1CCNC3)C2` | -0.9909 | 9.185 | 16.94 | -4.75 | 1.739 |
| `CNC(=O)c1cc2c(nc1NCC(C)C)CCN(c1ncccn1)CC2.O=C(O)C(F)(F)F` | - | - | 3.409 | - | - |
| `Cc1ccnc(N2CCCC(c3noc(C(C)C)n3)C2)n1` (stereo not shown) | 0 | -0.1995 | 0.707 | 4.326 | -0.3968 |
| `CC(C)(C)Cc1noc2ncc(C(=O)N3CCCSCC3)cc12` | 6.979 | -23.21 | -17.13 | -3.947 | 3.99 |
| `CCn1cc(C(=O)N2CCCN(c3cccnn3)CC2)c2ccccc21` | 4.222 | -21.74 | 4.428 | 0.2688 | 7.116 |
| `COCCN1CCCC(Cc2cnc(-c3c(C)nn(C)c3C)cn2)C1` (stereo not shown) | -2.888 | 0.9636 | 19.43 | 0.8085 | 0.9324 |
| `CC(C)NC(=O)N1CCN(CC2CC2)CC2(CC(=O)N(C)C2)C1` (stereo not shown) | -2.251 | -7.531 | - | 1.457 | -1.863 |
| `Cc1cccc(C(=O)N2CC[C@@H]3[C@H]2CCC(=O)N3c2ccccc2)n1` | 7.961 | 19.04 | - | -5.473 | -0.8653 |
| `Cc1ccc(CN2C[C@H](NC(=O)c3nccn3C)[C@H]3OCCC[C@H]32)o1` | - | 1.595 | - | 1.614 | -1.733 |
| `[H][C@@]12CCN(C(=O)CN(C)C)C[C@]1(COCC1CC1)CCO2` | - | - | 17.72 | - | - |
| `Cc1cccc(N2CCC3(CCCN(C(=O)Cc4cccnc4)C3)C2)n1` (stereo not shown) | -2.764 | -4.421 | 7.926 | -0.8124 | -2.335 |
| `CN(Cc1ccc(Cl)s1)C(=O)Cn1nc(-c2ccc(F)cc2)oc1=O` | 1.505 | -5.187 | 10.62 | 0 | -0.4878 |
| `COCCCNC(=O)CN1CCSC(c2ccccc2)C1` (stereo not shown) | 3.525 | -22.76 | 33.68 | 4.532 | -0.3797 |
| `CCc1n[nH]c(C2CN(C(=O)c3cnc(C)s3)CCO2)n1` (stereo not shown) | 0.236 | 8.595 | -13.18 | 4.634 | -3.856 |
| `COCCN1CCOCC12CCN(c1cnccn1)CC2` | - | -9.14 | - | 2.34 | 4.703 |
| `O=C(CC1CC1)N1CCC2(CC1)CN(c1cccnc1)C(=O)CO2.O=C(O)C(F)(F)F` | - | - | 15.86 | - | - |
| `CC(C)CNC(=O)COc1cccc[n+]1[O-]` | -5.651 | -1.454 | 7.71 | 1.212 | -10 |
| `O=C1O[C@@H]2CN(Cc3cccc(O)c3)C[C@@H]2N1CCCN1CCOCC1` | -2.122 | 8.105 | - | -1.268 | 5.353 |
| `CC(C)(NS(C)(=O)=O)c1nc(-c2ccncc2)no1` | -1.618 | 2.432 | 4.732 | -0.7551 | -4.578 |
| `CCCn1[nH]cc/c1=N\C(=O)CN1CCCC1c1c(C)nn(C)c1C` (stereo not shown) | 6.808 | -0.09841 | -2.027 | -8.019 | 3.677 |
| `[H][C@]12CCCCN1CCC[C@H]2CCc1nc(-c2ccc(C)nn2)no1` | - | - | 21.69 | - | - |
| `CCOC(=O)[C@@H]1[C@@H](c2ccccc2)CN2CCNC[C@H]12` | - | -23.59 | - | 2.357 | 3.39 |
| `N#Cc1cccc(N2CC3(CCN(C(=O)c4cccnc4)C3)CC2=O)c1` (stereo not shown) | 2.78 | 4.129 | - | 8.692 | 2.445 |
| `CSCC[C@@H]1CN2CCC[C@H]2CN1Cc1coc2ccc(C)cc2c1=O` | -6.22 | -2.983 | - | 1.067 | 1.577 |
| `CCN(C)C1COC2(CCN(C(=O)c3cccc(Cl)c3)CC2)C1` (stereo not shown) | -6.548 | -8.557 | - | 4.107 | 1.018 |
| `Cc1nc(CCNC(=O)C2CC(=O)N(C(C)(C)C)C2)sc1Cl` (stereo not shown) | -2.558 | -12.88 | 15.33 | 3.004 | -0.7317 |
| `COc1ccc(-c2cc(C3CCN(C(C)=O)CC3)ccn2)cc1` | - | 4.582 | 19.26 & 22.76 | 2.745 | 4.358 |
| `Cc1ccc(CN2CCC3(CC2)CC(CC(=O)NC(C)C)CO3)s1.O=C(O)C(F)(F)F` (stereo not shown) | - | - | 7.546 | - | - |
| `CCn1nc2c(cc1=O)CN(CC(=O)Nc1cc(C)no1)CC2` | 10.43 | -1.139 | 3.243 | -0.1714 | -5.325 |
| `CC(CNCc1ccc(F)cc1)Oc1ccccn1.Cl` (stereo not shown) | - | - | -18.44 | - | - |
| `CC(C)c1ccc(C2CC(=O)Nc3c2cnn3C)cc1` (stereo not shown) | -1.765 | -4.722 | -5.244 & -38.62 | -0.6751 | 2.036 |
| `COc1ccc(C(=O)NC2CC2)c(OC)c1` | -2.484 | 0.8417 | 10.52 | 3.528 | 7.503 |
| `CCN1C(=O)[C@H]2CN(CC(C)C)C[C@H]2C12CCN(C(=O)NC(C)C)CC2` | 3.108 | 4.329 | - | 4.901 | -36.84 |
| `FC(F)(F)C1CCc2nnc(CNCc3ccsc3)n2C1` (stereo not shown) | 7.544 | -8.565 | -2.387 | 1.056 | 10.13 |
| `Cc1c(C(=O)N2CCCC2c2cnn(C)c2)nnn1-c1ccccc1` (stereo not shown) | -0.4859 | 4.605 | 13.35 | 0.4235 | 8.432 |
| `CN(C)C(=O)CN1CCOCC2(CCN(c3ncc(F)cn3)CC2)C1` | - | -7.542 | - | 3.841 | 2.97 |
| `CCNC(=O)C1CCN(Cc2ccc(C(=O)Nc3nnc(C)s3)cc2)C1` (stereo not shown) | 0.1514 | -8.168 | -26.49 | -7.011 | 6.472 |
| `CS(=O)(=O)Cc1noc(CN(Cc2ccco2)c2ccccc2)n1` | 0.2463 | 4.191 | -1.876 | -0.4778 | 6.511 |
| `CC(C)c1nc(CN(CC(N)=O)C(C)C)cs1` | 2.178 | -7.673 | 17.44 | -0.4209 | 0.7874 |
| `CN1CCOC(CN(C(=O)CCCn2cccn2)c2nccs2)C1` (stereo not shown) | -1.71 | -11.94 | 18.3 | 2.172 | 1.096 |
| `O=C(O)C(F)(F)F.O=C(O)C(F)(F)F.[H][C@@]12CCN(C(=O)C(C)C)CC[C@]1(C(=O)Nc1cccnc1)CCN2C` | - | - | 36.27 | - | - |
| `Cc1ccc(SCC2CNc3nc4ccccc4c(=O)n32)c(C)c1` (stereo not shown) | 0.5344 | 21.2 | 34.23 | -8.694 | 2.418 |
| `Oc1nc(N2CCCC2)nc2c1CCN(Cc1ccsc1)CC2` | 0.1569 | -4.379 | -5.582 | 1.124 | 3.337 |

Repeated from the top, 6 entries:

compound	A	B	C	D	E
O=C(NCCC(=O)N1CCCC1)C(OC1CCCC1)c1ccccc1 (stereo not shown)	-7.597	11.45	-11.04	-3.191	-1.491
Cc1ccc2[nH]c3c(c2c1)CN(C(=O)CN(C)CC1OCCO1)CC3	-2.733	6.389	6.308	1.336	-2.552
Cc1ccc(CNC(=O)Cc2c(C)nc3c(c2C)c(=O)[nH]n3C)cc1	2.257	-41.36	-17.79	0.6502	-0.2611
CCn1c(C)nc2cc(NC(=O)CC3CCN(S(C)(=O)=O)CC3)ccc21	-5.114	26.52	32.47	2.348	1.051
CSCC(CCO)NC(=O)Nc1cc(F)ccc1C (stereo not shown)	-1.632	-6.977	41.76	8.437	0.1266
CCc1cc(N(C)Cc2noc(C(C)C)n2)nc(N2CCOCC2)n1	5.263	-11.14	20.51	-0.2568	1.463